Laboratory results taken from US20260007688A1, “SYNTHETIC ANALOGS OF CANNABINOL (CBN) FOR THE TREATMENT OF AGERELATED NEUROLOGICAL DISORDERS” (priority 2023, published 2026).
Some of these results come from one statement about several compounds together.

What follows are compounds tested on HT22 cells (assay: Lipid peroxidation measurement (C11-BODIPY)). Conditions: 5 μM alone, 16 hours.
Type: cell-based, mouse
Method: The assay procedures were adapted from the procedures disclosed by Soriano-Castell et al., “Profiling the chemical nature of anti-oxytotic/ferroptotic compounds with phenotypic screening” Free Radic. Biol. Med. 177 (2021) 313-325 and Liang et al. “Cannabinol inhibits oxytosis/ferroptosis by directly targeting mitochondria independently of cannabinoid receptors” Free Radic. Biol. Med. 180 (2022) 33-51. Briefly, HT22 cells were seeded onto 96-well black walled plates at a density of 3,000 cells/well in DMEM supplemented with 10% FBS and 1% antibiotics. After the desired treatments for 16 hours, cells were labeled with 2.5 μM C11-BODIPY 581/591 (oxidized form Ex/Em=488/520 nm) at 37° C. for 2 hours. Experiments were performed according to the manufacturer's instructions. Fluorescence was measured on a SpectraMax M5 microplate reader. Data were normalized for total protein/well. Each condition was analyzed in eight wells per independent experiment (n=8). Results were verified by live-cell imaging under a fluorescence microscope.
For `CCCCCc1cc(O)c2c(c1)OC(C)(C)c1ccc(C)cc1-2` [CBN, Cannabinol], the “LPO levels in control cells, compound alone” value (“LPO levels in control cells” for short) was “did not change”. With `CCCCCCC(C)(C)c1cc(O)c2c(c1)OC(C)(C)C=C2` [CP1, 2,2-dimethyl-7-(2-methyloctan-2-yl)-2H-chromen-5-ol] the “LPO levels in control cells” value was “did not change”. For `CCCCCCC(C)(C)c1cc(O)c2c(c1)OC(C)C=C2` (centres unmarked) [CP2, 2-methyl-7-(2-methyloctan-2-yl)-2H-chromen-5-ol], the “LPO levels in control cells” value was “did not change”. With `CCCCCc1cc(O)c2c(c1)OC(C)(C)C=C2` [CP3, 2,2-dimethyl-7-pentyl-2H-chromen-5-ol] the “LPO levels in control cells” value was “did not change”. With `CCCCCc1cc(O)c2c(c1)OC(C)C=C2` (centres unmarked) [CP4, 2-methyl-7-pentyl-2H-chromen-5-ol] the “LPO levels in control cells” value was “did not change”.
